According to PMC12280988:
These are yes or no findings as the source states them, for the method shown. In cells and extracts the contact can be indirect. Some results given as binding are weak or reduced against the parent protein; the word gives no strength.

Target: T1, CKLF-like MARVEL transmembrane domain containing 3 (CMTM3), wild type (UniProt Q96MX0)
T1 sequence: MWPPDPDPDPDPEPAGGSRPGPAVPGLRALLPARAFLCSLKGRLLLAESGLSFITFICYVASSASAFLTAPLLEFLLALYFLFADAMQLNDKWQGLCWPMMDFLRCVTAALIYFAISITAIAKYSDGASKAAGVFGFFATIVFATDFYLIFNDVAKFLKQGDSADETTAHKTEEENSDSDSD
Assay: co-IP; co-immunoprecipitation shown in supplementary figures (S3C, S4A, S4C, S4D); cells, antibodies and conditions not shown

## peroxisome proliferator-activated receptor gamma (PPARγ), full-length (from UniProt P37231 1-505)
  binding: binds
